For the experiment, the target named is Transferrin binding protein B of Neisseria meningitidis serogroup B strain M982 (Neisseria meningitidis serogroup B strain M982) (UniProt Q09057). The experiment is described as follows: ELISA; high throughput protein ELISA; TbpB proteins captured on the plate, HRP-labelled hTf added as control of capture and folding. For orientation: ELISA stands for enzyme-linked immunosorbent assay.

Amino acid sequences for entries named in this document (tags omitted). Residues count along the entry.
UniProt Q09057, residues 56-711: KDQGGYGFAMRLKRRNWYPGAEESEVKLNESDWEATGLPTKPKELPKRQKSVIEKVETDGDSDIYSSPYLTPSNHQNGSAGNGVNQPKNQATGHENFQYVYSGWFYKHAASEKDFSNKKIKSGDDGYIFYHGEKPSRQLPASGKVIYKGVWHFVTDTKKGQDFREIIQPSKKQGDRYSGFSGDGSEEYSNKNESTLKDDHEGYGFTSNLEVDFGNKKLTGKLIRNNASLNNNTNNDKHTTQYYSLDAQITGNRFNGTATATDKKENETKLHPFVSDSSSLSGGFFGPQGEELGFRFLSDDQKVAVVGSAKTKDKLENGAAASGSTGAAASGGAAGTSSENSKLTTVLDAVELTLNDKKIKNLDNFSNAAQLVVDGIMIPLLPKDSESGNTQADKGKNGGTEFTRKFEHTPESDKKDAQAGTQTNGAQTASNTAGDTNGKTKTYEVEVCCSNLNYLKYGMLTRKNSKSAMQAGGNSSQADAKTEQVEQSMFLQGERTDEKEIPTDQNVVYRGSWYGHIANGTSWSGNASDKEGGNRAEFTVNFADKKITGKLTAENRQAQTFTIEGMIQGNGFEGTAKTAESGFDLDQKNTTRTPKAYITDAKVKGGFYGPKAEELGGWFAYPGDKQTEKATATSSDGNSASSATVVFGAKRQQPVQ
UniProt P02787, residues 20-698: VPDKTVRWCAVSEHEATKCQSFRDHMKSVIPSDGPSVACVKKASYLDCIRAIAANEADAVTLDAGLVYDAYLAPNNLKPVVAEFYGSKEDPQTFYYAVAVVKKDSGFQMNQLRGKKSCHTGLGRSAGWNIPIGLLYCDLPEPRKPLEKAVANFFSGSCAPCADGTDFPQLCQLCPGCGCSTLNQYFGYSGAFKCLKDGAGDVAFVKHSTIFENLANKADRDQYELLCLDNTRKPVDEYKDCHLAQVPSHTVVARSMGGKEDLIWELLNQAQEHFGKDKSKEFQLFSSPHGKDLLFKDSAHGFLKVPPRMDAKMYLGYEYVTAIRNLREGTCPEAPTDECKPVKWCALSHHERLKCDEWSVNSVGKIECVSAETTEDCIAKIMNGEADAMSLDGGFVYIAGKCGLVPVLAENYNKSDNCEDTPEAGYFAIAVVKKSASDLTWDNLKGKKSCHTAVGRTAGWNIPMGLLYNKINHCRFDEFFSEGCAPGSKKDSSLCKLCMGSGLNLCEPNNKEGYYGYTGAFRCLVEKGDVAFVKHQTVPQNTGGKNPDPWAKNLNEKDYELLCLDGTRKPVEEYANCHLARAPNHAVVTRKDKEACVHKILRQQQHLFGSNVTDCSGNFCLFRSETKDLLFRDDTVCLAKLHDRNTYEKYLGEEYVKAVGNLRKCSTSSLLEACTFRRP

No constants are given. Whether binding was seen depends on the method and setting. Some results given as binding are weak or reduced against the parent protein; the word gives no strength.

Consider “HRP-labelled human transferrin (from UniProt P02787 20-698) (ligand)”, for which the binding entry was “binds”.

The values are drawn from PMC13480600.
